Patent US20250341517A1, “SWITCHING PEPTIDE, IMMUNOASSAY DEVICE COMPRISING SAME, AND IMMUNOASSAY METHOD USING SAME” (OPTOLANE TECHNOLOGIES INC., priority 2021, published 2025)

How the values were obtained:
Inf-A = experiment: One-step immunoassay detection of Inf-A with switching-peptide-bound binding antibody (FIG. 18, 20B); parameters: species or system Influenza A; details: anti-Inf-A binding antibody bound to the peptide, in PBS; H2 quenched with TQ2, L1 quenched with TQ1
Inf-B = experiment: One-step immunoassay detection of Inf-B with switching-peptide-bound binding antibody (FIG. 19, 20D); details: anti-Inf-B binding antibody bound to the peptide, in PBS; H2 labeled with FAM, L1 labeled with TAMRA
From the text: Therefore, an antibody bound to the L1 peptide or the H2 peptide may be used for selective detection of the Inf-B.
Therefore, binding antibodies bound to the two types of peptides may have similar responses upon detection of Inf-A.
In addition, since it can be confirmed that the baseline is maintained in the experiment with CoV strain 229E, which is a negative control, the immunoassay based on the two types of binding antibodies may be used to detect Inf-B in actual samples.
Therefore, the immunoassay device using the switching peptide according to the present disclosure may sensitively detect Inf-B in a much wider detection range than conventional rapid tests, and the one-step immunoassay method according to the present disclosure may be used for much more sensitive detection of Inf-A and Inf-B in the entire detection range compared to conventional rapid tests.

Sequence | limit of detection (LOD) (Inf-A) [ng/mL] | limit of detection (LOD) (Inf-B) [ng/mL]
TYLEWYPQKPGQSPKLLIYK [L1, TYLEW YPQKP GQSPK LLIYK] | 0.15 | 0.26
VYYCAREPTGTGIYFDVWGK [H2, VYYCA REPTG TGIYF DVWGK] | 0.02 | 0.04
